The values below come from PubChem BioAssay AID1508600 (Functional Genomics Laboratory (NCATS/FGL), 2020).

The whole screen tested about 53,000 sequences, of which about 3,700 (7%) were called active.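 How the source made its calls: active means gene knockdowns whose robust z-score for IL-1 alpha signal is at least 2 or at most -2, so actives lie on both sides; inactive means the rest.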 Some of the results follow.

The nature of the test: Components of the Cytosolic LPS Sensing Pathway: Gene Identification via Genome-wide siRNA Screen.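 Further: robust z of the log signal after scaling to non-targeting control siRNA wells of the plate.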 To be noted: RAW264.7 macrophages, IL-1a HTRF, actives lie on both sides, screened at 100 nM (by protocol), cells primed 5 h with Pam3CSK4 first. In outline:
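Supernatant IL-1a by HTRF from RAW264.7 cells primed with Pam3CSK4 (5 hours) and transfected with LipidA (24 hour) after 48h siRNA knockdown at 100 nM; cell viability checked with CellTiter-Glo.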
In general terms: TR-FRET usually uses a lanthanide donor and a delayed reading to cut background.
In the case of GCUGGUCCUAUCUGUGCUUTT against Olfr1099, the z-score was inactive: 0.24.

As for “GGCUCAACCAAGAAAGGCUTT against 4930591A17Rik”, the z-score was inactive: -1.28.

GGAGAACAUUCAGGUGACATT against Pdgfd: the z-score was inactive: -0.625.

With CCCAAAGGGUCAAGAUAAUTT against Hmgcr, the z-score is inactive: -1.5.

For the sequence GGUCUCAGACACCUGACUCTT against Opa3, the z-score was inactive: 1.53.

Turning to GGUUGAACAUAAGCACAAUTT against Cdkn2aip, the z-score was inactive: -0.42.

As for CCUAACAUUACUGAUGAUUTT against Ice2, the z-score was inactive: -0.641.

For CGAAAGGUAGUGCUUUCCATT against Hipk3, the z-score is inactive: 0.0532.

Consider GGUUUGAUGACAAAUACACTT against Spcs2, for which the z-score was inactive: 1.6.

For the sequence GGGUGUCAUAUCACAUAUGTT against Dpt, the z-score is inactive: -0.205.

Take GGUUCUGGAAAUGGAGACUTT against Cenpp: the z-score is inactive: 0.0385.

As to GGACCCAAAACUACAGCCUTT against Olfr850, the z-score is inactive: 0.924.

Turning to GGAUUACCACAAAUCUGAATT against Ccdc7a, the z-score is inactive: -0.793.

With CCAGUAGAAAGAAUCCAGATT against Gm128, the z-score is inactive: 0.0855.

Consider CCUCCACUCCUAAUGAGAUTT against Cideb, for which the z-score is inactive: 0.389.

On to GGCAUCUUCAAAUGACAUATT against Cic, for which the z-score was inactive: -1.32.

With GGAUCCUUCGAAUCCUGAATT against Cst11, the z-score was inactive: -0.372.

Regarding GGCUUACCUGGUCUACUCCTT against Wnt8b, the z-score was inactive: -0.95.

Regarding CGAAGAUUAAUUUUGCUCATT against Lrrtm2, the z-score is inactive: 0.316.

GGAACAAGAACUUUCUAAGTT against Golim4: the z-score was inactive: 0.83.

With GGCAAAUGUAAAGUUAGGUTT against Zfp24, the z-score is inactive: 0.768.

As for GGACCGUGUCUCUGGAAAATT against Gpx8, the z-score was inactive: -0.00687.

With CCCAUCUCGAAUGAAAGCCTT against Clec3a, the z-score is inactive: -1.36.

In the case of CGGGUUGAAAGCUCAGUAATT against Amer3, the z-score was inactive: -1.63.

On to GGACACAGACAUCCUCUUGTT against Sult5a1, for which the z-score is inactive: 1.04.

As for “GCUUACCUGCUGUCUUAAUTT against F630003A18Rik”, the z-score is inactive: 0.42.

Turning to GCGCAUUCUGCAUCAUGCUTT against Chil3, the z-score is inactive: -0.0254.

As for “GCUGCUCGAUUGCUUUCCATT against 4930429B21Rik”, the z-score is inactive: 0.411.

Turning to GCCCAAAUAGAGGAGGCUUTT against Aqp1, the z-score was inactive: -0.691.

Regarding GGUGGUACAGGUCUUCUCCTT against Ap1m1, the z-score is inactive: -1.32.

Take CCCAUCCAUACAAAAAUGATT against Polm: the z-score was inactive: -1.73.

In the case of CGUAAUCCUGACUUUUUGATT against Adam9, the z-score was inactive: 1.39.

On to GCAAUGGUCCCACUGUCAGTT against Nrip1, for which the z-score is inactive: -0.356.

On to GCAGUAGCCGGAAGAUAACTT against Itln1, for which the z-score was inactive: 1.34.

For the sequence GGAAACAAUACACCAAAUGTT against Bmt2, the z-score is inactive: 1.47.

GGCAUACUGGUUAAUCUCATT against Arl6: the z-score was inactive: -0.306.

With GGGCCUUUAGUCCUCAAAGTT against Psmg3, the z-score was inactive: 0.387.

As for GGUGUUUGAGAUCAGCUGCTT against Trib2, the z-score is inactive: 0.0959.

Turning to GGAUGAAACUUUCAGUUGCTT against Cenph, the z-score was inactive: 0.381.

Turning to GGAGAAAGUUUUGGAAAAATT against Slc24a5, the z-score is inactive: -0.622.

On to CGAUUCUGUAUCCAGUUGGTT against Olfr488, for which the z-score is inactive: -0.281.

With GCUUCUAAAAGAGUUGACATT against Mgat4a, the z-score was inactive: -0.0407.

As to GGCACAUGGAGUGGACAAGTT against Blvrb, the z-score was active: 3.2.

In the case of “CCAUGUCUGUAUCCGCAUUTT against 1700001J03Rik”, the z-score is inactive: 1.38.

On to GUACACAAGCCCUGUUUACTT against Hoxa6, for which the z-score is inactive: -0.89.

In the case of GGAAACAGAAGGAAUACUUTT against Tbc1d22a, the z-score is inactive: -0.333.

On to CCACUUAUGGGCCUACAAATT against Nipsnap1, for which the z-score was inactive: 0.826.

Regarding CGGCAAGUAUGAUCUGGACTT against Eno3, the z-score is inactive: 1.69.

Take GCCGCUUAUAUGUAUCGCUTT against Adipoq: the z-score was active: 2.54.

For the sequence GGUUUAGGCAACUAAGUUGTT against Stat5a, the z-score was inactive: 0.426.

Turning to GGCGAGAAGAGGUGAAUCATT against Nrbp1, the z-score is inactive: 1.92.

On to GGUGUUCCAGUUACCUGAGTT against Klhl26, for which the z-score is inactive: -0.0813.

With CGAUGCUGACUGAGAUCAUTT against Rad23a, the z-score was inactive: 1.39.

In the case of GCACUAAUACUAACCAUGGTT against Rhox12, the z-score was inactive: 0.788.

On to CCACUCAAGACCAAAUGGATT against Arx, for which the z-score was inactive: -0.147.

Consider GGAAAGUAUGGUGGCUUCGTT against Olfr859, for which the z-score is inactive: 0.159.

With GGCUCAUUUAAAACAAGCATT against Cdh11, the z-score is inactive: -0.259.

Regarding GGGUACACAACUACCCAAGTT against Sox15, the z-score is inactive: -0.806.

As to GGAUCGUUUAUGAAUCUGATT against Slitrk6, the z-score is inactive: -0.891.

With CCUAGAGUGAGAUAGCCCUTT against Igfbpl1, the z-score was inactive: 0.185.

As to CGAAAGCUAAACUAAAAGATT against Stimate, the z-score was inactive: 0.539.

In the case of “GGAAGUGUAUGUUAUUUCATT against B230325K18Rik”, the z-score is inactive: 0.173.

For GGUUCUACCUUUCAUGAGUTT against Gm11733, the z-score was inactive: 0.803.

Turning to GCAACCCAUAGUCUACCCUTT against Hoxc4, the z-score is inactive: 0.233.

On to GGAGCGUAGAUAACUUAUCTT against Itprid2, for which the z-score is inactive: -0.0474.

For GGAAGAGCCAGUGGUAUAATT against Ccdc171, the z-score was inactive: 0.164.

For GGGAGAACCAGCACAACAUTT against Cavin2, the z-score is inactive: -1.8.

For GGAGAAAAUUGAAGAGUAUTT against Gtf2e2, the z-score was inactive: -1.56.
